In PMC7446885:
No constants are given. Whether binding was seen depends on the method and setting. For some of these results: Binding calls can cover weak binding; strength is not graded here. Where a sequence is shown, tags or fusion partners need not be part of it. For some of these results: In cells and extracts the contact can be indirect.

B1: TOPLESS (TPL) of Arabidopsis, yeast two-hybrid fusion (protein, UniProt Q94AI7 1-1131)
chain: MSSLSRELVFLILQFLDEEKFKETVHKLEQESGFFFNMKYFEDEVHNGNWDEVEKYLSGFTKVDDNRYSMKIFFEIRKQKYLEALDKHDRPKAVDILVKDLKVFSTFNEELFKEITQLLTLENFRENEQLSKYGDTKSARAIMLVELKKLIEANPLFRDKLQFPTLRNSRLRTLINQSLNWQHQLCKNPRPNPDIKTLFVDHSCGPPNGARAPSPVNNPLLGGIPKAGGFPPLGAHGPFQPTASPVPTPLAGWMSSPSSVPHPAVSAGAIALGGPSIPAALKHPRTPPTNASLDYPSADSEHVSKRTRPMGISDEVNLGVNMLPMSFSGQAHGHSPAFKAPDDLPKTVARTLSQGSSPMSMDFHPIKQTLLLVGTNVGDIGLWEVGSRERLVQKTFKVWDLSKCSMPLQAALVKEPVVSVNRVIWSPDGSLFGVAYSRHIVQLYSYHGGEDMRQHLEIDAHVGGVNDISFSTPNKQLCVITCGDDKTIKVWDAATGVKRHTFEGHEAPVYSVCPHYKENIQFIFSTALDGKIKAWLYDNMGSRVDYDAPGRWCTTMAYSADGTRLFSCGTSKDGESFIVEWNESEGAVKRTYQGFHKRSLGVVQFDTTKNRYLAAGDDFSIKFWDMDAVQLLTAIDGDGGLQASPRIRFNKEGSLLAVSGNENVIKIMANSDGLRLLHTFENISSESSKPAINSIAAAAAAAATSAGHADRSANVVSIQGMNGDSRNMVDVKPVITEESNDKSKIWKLTEVSEPSQCRSLRLPENLRVAKISRLIFTNSGNAILALASNAIHLLWKWQRNERNATGKATASLPPQQWQPASGILMTNDVAETNPEEAVPCFALSKNDSYVMSASGGKISLFNMMTFKTMATFMPPPPAATFLAFHPQDNNIIAIGMDDSTIQIYNVRVDEVKSKLKGHSKRITGLAFSNVLNVLVSSGADAQLCVWNTDGWEKQRSKVLPLPQGRPNSAPSDTRVQFHQDQAHFLVVHETQLAIYETTKLECMKQWAVRESLAPITHATFSCDSQLVYASFMDATVCVFSSANLRLRCRVNPSAYLPASLSNSNVHPLVIAAHPQEPNMFAVGLSDGGVHIFEPLESEGKWGVAPPAENGSASGAPTAPSVGASASDQPQR
B2: TPL-HA (protein, UniProt Q94AI7 1-1131)
chain: B1 chain
B3: TPLΔCTLH (Δ25–91), yeast two-hybrid fusion (protein, UniProt Q94AI7)
chain: MSSLSRELVFLILQFLDEEKFKETKAVDILVKDLKVFSTFNEELFKEITQLLTLENFRENEQLSKYGDTKSARAIMLVELKKLIEANPLFRDKLQFPTLRNSRLRTLINQSLNWQHQLCKNPRPNPDIKTLFVDHSCGPPNGARAPSPVNNPLLGGIPKAGGFPPLGAHGPFQPTASPVPTPLAGWMSSPSSVPHPAVSAGAIALGGPSIPAALKHPRTPPTNASLDYPSADSEHVSKRTRPMGISDEVNLGVNMLPMSFSGQAHGHSPAFKAPDDLPKTVARTLSQGSSPMSMDFHPIKQTLLLVGTNVGDIGLWEVGSRERLVQKTFKVWDLSKCSMPLQAALVKEPVVSVNRVIWSPDGSLFGVAYSRHIVQLYSYHGGEDMRQHLEIDAHVGGVNDISFSTPNKQLCVITCGDDKTIKVWDAATGVKRHTFEGHEAPVYSVCPHYKENIQFIFSTALDGKIKAWLYDNMGSRVDYDAPGRWCTTMAYSADGTRLFSCGTSKDGESFIVEWNESEGAVKRTYQGFHKRSLGVVQFDTTKNRYLAAGDDFSIKFWDMDAVQLLTAIDGDGGLQASPRIRFNKEGSLLAVSGNENVIKIMANSDGLRLLHTFENISSESSKPAINSIAAAAAAAATSAGHADRSANVVSIQGMNGDSRNMVDVKPVITEESNDKSKIWKLTEVSEPSQCRSLRLPENLRVAKISRLIFTNSGNAILALASNAIHLLWKWQRNERNATGKATASLPPQQWQPASGILMTNDVAETNPEEAVPCFALSKNDSYVMSASGGKISLFNMMTFKTMATFMPPPPAATFLAFHPQDNNIIAIGMDDSTIQIYNVRVDEVKSKLKGHSKRITGLAFSNVLNVLVSSGADAQLCVWNTDGWEKQRSKVLPLPQGRPNSAPSDTRVQFHQDQAHFLVVHETQLAIYETTKLECMKQWAVRESLAPITHATFSCDSQLVYASFMDATVCVFSSANLRLRCRVNPSAYLPASLSNSNVHPLVIAAHPQEPNMFAVGLSDGGVHIFEPLESEGKWGVAPPAENGSASGAPTAPSVGASASDQPQR
B4: TPLΔCTLH:HA (protein, UniProt Q94AI7)
chain: B3 chain

Experiments:
[1] = target: RxL21ΔN (Δ1–36), yeast two-hybrid fusion (Hyaloperonospora arabidopsidis); assay: two-hybrid; Gal4 AD-X (yeast Y8800) and DB-X (Y8930) fusions mated; growth on SC media lacking Leu, Trp and His (3AT for stringency) or also Ade; tested in both directions
[2] = target: RxL21 with Leu389 mutated to Ile, yeast two-hybrid fusion (Hyaloperonospora arabidopsidis); assay: as above
[3] = target: RxL21 with Leu389 mutated to Ala, yeast two-hybrid fusion (Hyaloperonospora arabidopsidis); assay: as above
[4] = target: HaRxL21 (RxL21), yeast two-hybrid fusion (Hyaloperonospora arabidopsidis); assay: as above
[5] = target: Myc-RxL21 (Hyaloperonospora arabidopsidis); assay: co-IP; transient co-expression in N. benthamiana leaves, RxL21 induced with 30 uM estradiol; sonicated nuclear lysate (10 mM Tris pH 7.5, 150 mM NaCl, 0.5% Igepal, 4 C); anti-c-myc magnetic microbeads, blot with anti-HA

| Binder | binding [1] | binding [2] | binding [3] | binding [4] | binding [5] |
| --- | --- | --- | --- | --- | --- |
| B1 | binds | no binding | no binding | binds | – |
| B2 | – | – | – | – | binds |
| B3 | – | – | – | no binding | – |
| B4 | – | – | – | – | no binding |
